Paper PMC11448500
No constants are given. Whether binding was seen depends on the method and setting. In cells and extracts the contact can be indirect. Some binding calls cover weakened binding; strength is not graded here.

The chains behind the UniProt entries cited, without tags or fusion partners.
UniProt Q61501: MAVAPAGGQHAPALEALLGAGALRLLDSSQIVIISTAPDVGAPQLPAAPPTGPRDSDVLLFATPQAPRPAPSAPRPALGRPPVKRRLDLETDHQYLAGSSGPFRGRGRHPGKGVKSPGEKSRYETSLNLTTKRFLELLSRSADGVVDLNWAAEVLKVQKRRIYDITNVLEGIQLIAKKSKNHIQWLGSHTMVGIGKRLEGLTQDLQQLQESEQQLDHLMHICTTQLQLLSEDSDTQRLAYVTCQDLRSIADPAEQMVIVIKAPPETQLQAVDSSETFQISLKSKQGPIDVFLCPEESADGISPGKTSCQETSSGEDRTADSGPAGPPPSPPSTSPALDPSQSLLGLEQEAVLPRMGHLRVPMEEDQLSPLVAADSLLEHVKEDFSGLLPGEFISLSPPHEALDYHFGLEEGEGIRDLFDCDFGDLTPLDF

Biological target: T1, KDM2A (mouse (endogenous in c-KIT+ spermatogonia of mouse testes)) (UniProt P59997)
T1 sequence: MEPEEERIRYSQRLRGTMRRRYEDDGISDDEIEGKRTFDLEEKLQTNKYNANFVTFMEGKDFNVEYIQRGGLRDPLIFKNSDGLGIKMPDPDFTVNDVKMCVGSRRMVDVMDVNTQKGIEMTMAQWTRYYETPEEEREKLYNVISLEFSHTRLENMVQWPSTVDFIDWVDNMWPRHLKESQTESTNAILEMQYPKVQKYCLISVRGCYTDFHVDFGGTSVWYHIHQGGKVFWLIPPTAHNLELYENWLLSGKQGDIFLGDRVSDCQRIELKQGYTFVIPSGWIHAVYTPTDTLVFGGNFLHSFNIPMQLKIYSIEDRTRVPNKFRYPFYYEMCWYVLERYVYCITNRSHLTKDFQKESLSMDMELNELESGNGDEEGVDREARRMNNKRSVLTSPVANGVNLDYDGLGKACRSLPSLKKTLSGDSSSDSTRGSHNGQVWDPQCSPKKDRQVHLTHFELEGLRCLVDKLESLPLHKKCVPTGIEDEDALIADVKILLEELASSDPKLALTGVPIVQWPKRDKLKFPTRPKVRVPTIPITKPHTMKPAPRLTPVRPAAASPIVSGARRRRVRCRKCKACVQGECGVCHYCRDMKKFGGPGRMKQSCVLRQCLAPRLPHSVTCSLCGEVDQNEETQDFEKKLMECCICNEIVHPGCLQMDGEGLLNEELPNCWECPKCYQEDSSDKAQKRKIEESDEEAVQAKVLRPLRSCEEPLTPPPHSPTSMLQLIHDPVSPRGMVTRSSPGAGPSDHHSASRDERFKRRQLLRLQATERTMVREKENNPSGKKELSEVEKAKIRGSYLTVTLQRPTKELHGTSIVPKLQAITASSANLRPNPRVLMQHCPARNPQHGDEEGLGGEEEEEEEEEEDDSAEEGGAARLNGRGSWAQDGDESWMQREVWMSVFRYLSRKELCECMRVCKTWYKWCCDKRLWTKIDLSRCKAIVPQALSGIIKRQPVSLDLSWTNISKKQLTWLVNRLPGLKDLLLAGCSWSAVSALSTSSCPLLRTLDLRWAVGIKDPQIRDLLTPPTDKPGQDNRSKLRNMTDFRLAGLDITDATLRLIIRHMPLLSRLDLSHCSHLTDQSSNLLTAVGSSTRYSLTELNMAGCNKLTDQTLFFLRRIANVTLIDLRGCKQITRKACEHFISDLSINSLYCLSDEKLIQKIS
Test: co-IP; lysate of purified c-KIT+ spermatogonia, relevant antibodies and protein A/G magnetic beads overnight at 4 °C, with or without Super Nuclease, six washes, western blot; IgG as negative control

binding: binds
Substance: E2F1 (from UniProt Q61501 1-430)
